The values that follow come from paper PMC6117268.

Protein sequences, listed by entry. Tags and fused reporters are not part of them. Lines headed by an entry give the natural chain unless they say otherwise; changes in a name come on top.
UniProt Q13887: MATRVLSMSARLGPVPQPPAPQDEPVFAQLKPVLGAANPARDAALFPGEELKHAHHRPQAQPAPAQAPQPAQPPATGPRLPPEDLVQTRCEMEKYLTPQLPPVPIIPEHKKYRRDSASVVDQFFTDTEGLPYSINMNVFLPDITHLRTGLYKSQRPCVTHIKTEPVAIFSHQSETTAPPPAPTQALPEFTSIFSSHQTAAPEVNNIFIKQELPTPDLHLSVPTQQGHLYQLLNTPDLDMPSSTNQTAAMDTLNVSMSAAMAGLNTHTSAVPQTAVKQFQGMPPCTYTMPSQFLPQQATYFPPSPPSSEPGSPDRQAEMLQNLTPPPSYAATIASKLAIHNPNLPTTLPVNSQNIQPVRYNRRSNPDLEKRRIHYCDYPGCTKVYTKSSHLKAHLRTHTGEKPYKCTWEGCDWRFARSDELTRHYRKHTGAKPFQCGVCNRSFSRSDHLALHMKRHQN
UniProt Q92830: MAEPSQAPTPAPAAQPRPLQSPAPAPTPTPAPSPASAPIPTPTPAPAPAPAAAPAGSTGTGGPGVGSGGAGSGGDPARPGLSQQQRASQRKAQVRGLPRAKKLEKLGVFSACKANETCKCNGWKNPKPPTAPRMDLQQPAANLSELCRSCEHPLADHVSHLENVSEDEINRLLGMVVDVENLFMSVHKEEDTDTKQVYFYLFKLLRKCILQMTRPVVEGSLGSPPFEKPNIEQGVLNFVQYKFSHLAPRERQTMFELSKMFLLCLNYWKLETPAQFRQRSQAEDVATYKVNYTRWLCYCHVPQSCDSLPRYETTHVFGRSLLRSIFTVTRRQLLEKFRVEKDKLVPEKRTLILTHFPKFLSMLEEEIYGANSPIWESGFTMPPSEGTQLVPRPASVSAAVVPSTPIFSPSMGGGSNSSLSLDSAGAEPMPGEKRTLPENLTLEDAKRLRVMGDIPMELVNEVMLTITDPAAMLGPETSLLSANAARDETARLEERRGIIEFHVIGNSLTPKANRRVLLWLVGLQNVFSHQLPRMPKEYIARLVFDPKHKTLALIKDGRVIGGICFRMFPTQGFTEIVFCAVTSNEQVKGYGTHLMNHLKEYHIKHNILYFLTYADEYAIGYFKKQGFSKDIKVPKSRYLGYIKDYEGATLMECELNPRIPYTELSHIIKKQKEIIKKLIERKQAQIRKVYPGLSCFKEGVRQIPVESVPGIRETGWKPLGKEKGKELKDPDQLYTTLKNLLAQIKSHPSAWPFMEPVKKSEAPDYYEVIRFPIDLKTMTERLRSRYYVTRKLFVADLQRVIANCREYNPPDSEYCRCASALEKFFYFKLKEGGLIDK

No constants are given. Whether binding was seen depends on the method and setting. For some of these results: Binding seen in cells or lysates may run through a third protein. Some results given as binding are weak or reduced against the parent protein; the word gives no strength.

For assay [1], the target named is kruppel-like factor 5 (KLF5), endogenous in A549 cells (human (endogenous in A549)) (UniProt Q13887). Briefly: co-IP; A549 cell extract precleared with protein G-Sepharose and pre-immune IgG, IP with antibodies against KLF5 and GCN5, immunoblot; level adjusted to precipitated total KLF5; cells treated with C5a (0 to 6 h), C5aR inhibitor W54011, anti-C5a, pIRES2-GCN5, shGCN5, TSA and NAM. On the technique in general: Immunoblotting shows a protein as a band on a membrane.

For assay [2] the target is unchanged. The assay is described as follows: ChIP and Re-ChIP; A549 cells stimulated with C5a for 3 h; ChIP and second round of immunoprecipitation with anti-KLF5 and anti-GCN5 antibodies, real-time PCR of the GDF15 promoter (−103 to +58 nt). (In general: Quantitative PCR measures a nucleic acid by following its amplification.)
In assay [3] the target is recombinant his-tagged GCN5 (human) (UniProt Q92830). The assay is described as follows: pull-down; his-GCN5 (5 μg) held on cobalt-coated magnetic beads, flag-KLF5 (5 μg) added for 1 h; pulldown buffer 3.25 mM sodium-phosphate, 70 mM NaCl, 0.01% Tween-20; SDS-PAGE and coomassie blue staining; both purified.

Consider “GCN5 overexpressed from pIRES2-GCN5 (from UniProt Q92830-1 1-837) (enzyme)”, for which, in assay [1], the binding result is recorded as “binds”.

Take “general control non-depressible (GCN5), endogenous in A549 cells (from UniProt Q92830 1-837) (enzyme)”: the binding entry in assay [1] and in assay [2] was “binds” each time.

Take “flag-tagged KLF5, purified (from UniProt Q13887-1 1-457)”: in assay [3], the binding result was “binds”.
